# These are yes or no findings as the source states them, for the method shown. For some of these results: Binding seen in cells or lysates may run through a third protein. Some entries that bind do so weakly or less than the wild type. For some of these results: Sequences can lack the tags named with a protein.
# Amino acid sequences for entries named in this document (tags omitted). A change or cut given only in a name is not applied to a line headed by its entry.
# UniProt P04386: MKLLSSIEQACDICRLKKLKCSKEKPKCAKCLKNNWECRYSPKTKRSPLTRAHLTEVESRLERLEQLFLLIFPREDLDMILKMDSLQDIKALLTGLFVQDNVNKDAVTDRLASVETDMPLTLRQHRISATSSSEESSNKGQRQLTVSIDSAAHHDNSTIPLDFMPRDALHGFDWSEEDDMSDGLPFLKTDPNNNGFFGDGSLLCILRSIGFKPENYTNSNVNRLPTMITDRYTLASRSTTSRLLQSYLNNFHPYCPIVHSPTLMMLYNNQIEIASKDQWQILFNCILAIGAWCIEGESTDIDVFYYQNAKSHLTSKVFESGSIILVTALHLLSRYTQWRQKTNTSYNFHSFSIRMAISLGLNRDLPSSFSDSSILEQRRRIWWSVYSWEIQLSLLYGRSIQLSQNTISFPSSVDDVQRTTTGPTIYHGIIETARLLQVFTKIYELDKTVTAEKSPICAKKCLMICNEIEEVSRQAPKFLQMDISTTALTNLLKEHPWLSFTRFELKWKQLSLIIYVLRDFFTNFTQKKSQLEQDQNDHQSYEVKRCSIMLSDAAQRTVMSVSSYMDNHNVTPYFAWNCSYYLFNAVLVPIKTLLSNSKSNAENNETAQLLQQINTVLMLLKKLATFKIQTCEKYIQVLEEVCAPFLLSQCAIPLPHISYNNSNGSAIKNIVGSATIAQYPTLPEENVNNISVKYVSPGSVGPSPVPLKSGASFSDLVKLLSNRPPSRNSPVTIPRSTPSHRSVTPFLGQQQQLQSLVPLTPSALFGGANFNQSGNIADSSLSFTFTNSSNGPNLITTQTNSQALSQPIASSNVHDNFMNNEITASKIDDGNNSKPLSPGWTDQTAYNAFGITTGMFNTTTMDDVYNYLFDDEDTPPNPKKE
# T1: entire coding region of human ZHX3 protein fused to GST, GST-ZHX3 (1-956) (human) (UniProt Q9H4I2)
# T1 sequence: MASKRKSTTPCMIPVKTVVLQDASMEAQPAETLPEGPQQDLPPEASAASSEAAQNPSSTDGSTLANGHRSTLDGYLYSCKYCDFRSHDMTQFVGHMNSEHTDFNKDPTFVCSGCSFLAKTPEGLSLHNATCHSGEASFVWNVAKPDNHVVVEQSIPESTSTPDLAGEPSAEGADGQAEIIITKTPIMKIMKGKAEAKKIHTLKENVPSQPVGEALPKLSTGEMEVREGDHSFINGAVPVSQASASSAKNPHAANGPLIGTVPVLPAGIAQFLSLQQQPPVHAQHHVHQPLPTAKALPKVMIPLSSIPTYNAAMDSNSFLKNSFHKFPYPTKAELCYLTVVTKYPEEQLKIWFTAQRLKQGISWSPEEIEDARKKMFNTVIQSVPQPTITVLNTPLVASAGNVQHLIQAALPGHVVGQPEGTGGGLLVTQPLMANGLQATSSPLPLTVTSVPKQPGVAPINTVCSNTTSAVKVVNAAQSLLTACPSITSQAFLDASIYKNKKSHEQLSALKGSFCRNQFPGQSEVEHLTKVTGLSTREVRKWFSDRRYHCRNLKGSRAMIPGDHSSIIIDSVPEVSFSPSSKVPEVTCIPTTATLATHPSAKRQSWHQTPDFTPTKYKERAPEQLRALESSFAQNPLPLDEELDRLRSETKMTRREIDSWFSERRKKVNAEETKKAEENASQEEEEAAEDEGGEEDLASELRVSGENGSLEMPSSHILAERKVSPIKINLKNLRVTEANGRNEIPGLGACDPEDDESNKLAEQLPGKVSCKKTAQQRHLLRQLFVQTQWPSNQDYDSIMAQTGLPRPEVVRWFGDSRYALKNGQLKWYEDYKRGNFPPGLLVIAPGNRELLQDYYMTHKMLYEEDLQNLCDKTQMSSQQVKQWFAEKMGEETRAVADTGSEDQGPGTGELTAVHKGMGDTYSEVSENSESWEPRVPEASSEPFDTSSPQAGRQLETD
# T2: entire coding region of human ZHX1 protein fused to GST, GST-ZHX1 (1-873) (human) (UniProt Q9UKY1)
# T2 sequence (looked up): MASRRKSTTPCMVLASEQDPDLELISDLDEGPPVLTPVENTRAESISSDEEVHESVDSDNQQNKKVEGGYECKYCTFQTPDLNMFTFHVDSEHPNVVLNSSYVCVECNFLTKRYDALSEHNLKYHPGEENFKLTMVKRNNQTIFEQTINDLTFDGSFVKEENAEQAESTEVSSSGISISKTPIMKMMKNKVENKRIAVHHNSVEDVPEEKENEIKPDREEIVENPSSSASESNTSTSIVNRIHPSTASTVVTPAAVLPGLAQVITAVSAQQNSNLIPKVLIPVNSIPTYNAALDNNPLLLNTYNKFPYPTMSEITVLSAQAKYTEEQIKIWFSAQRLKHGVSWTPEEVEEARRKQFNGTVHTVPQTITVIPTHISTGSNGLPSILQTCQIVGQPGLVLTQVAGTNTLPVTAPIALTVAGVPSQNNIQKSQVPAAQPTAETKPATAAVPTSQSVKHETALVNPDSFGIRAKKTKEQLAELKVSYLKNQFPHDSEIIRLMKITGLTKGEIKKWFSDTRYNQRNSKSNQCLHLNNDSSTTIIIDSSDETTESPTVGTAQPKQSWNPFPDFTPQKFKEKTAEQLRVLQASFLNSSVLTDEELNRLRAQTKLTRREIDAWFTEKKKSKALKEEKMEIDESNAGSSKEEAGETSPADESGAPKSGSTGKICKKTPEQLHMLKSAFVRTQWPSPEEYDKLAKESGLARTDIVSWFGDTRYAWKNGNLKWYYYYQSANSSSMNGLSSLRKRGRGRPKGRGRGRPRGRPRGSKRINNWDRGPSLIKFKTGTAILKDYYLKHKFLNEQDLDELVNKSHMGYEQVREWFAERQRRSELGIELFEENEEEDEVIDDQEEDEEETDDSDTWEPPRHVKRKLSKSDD
# Tests used:
# [1] = target: T1, entire coding region of human ZHX3 protein fused to GST, GST-ZHX3 (1-956) (human); experiment: GST pull-down on glutathione-Sepharose beads, SDS/PAGE and autoradiography
# [2] = target: T2, entire coding region of human ZHX1 protein fused to GST, GST-ZHX1 (1-873) (human); experiment: as above
# [3] = target: entire coding sequence of human ZHX1 fused to the GAL4 DBD, pDBD-ZHX1 (1-873) (yeast; human) (UniProt P04386+Q9UKY1); experiment: yeast two-hybrid library screen, bait GAL4 DBD-human ZHX1 (1-873)
Binder,binding [1],binding [2],binding [3]
"in vitro-translated, 35S-labelled full-length human ZHX1 (protein, UniProt Q9UKY1 1-873, looked up, 35S-labelled) MASRRKSTTPCMVLASEQDPDLELISDLDEGPPVLTPVENTRAESISSDEEVHESVDSDNQQNKKVEGGYECKYCTFQTPDLNMFTFHVDSEHPNVVLNSSYVCVECNFLTKRYDALSEHNLKYHPGEENFKLTMVKRNNQTIFEQTINDLTFDGSFVKEENAEQAESTEVSSSGISISKTPIMKMMKNKVENKRIAVHHNSVEDVPEEKENEIKPDREEIVENPSSSASESNTSTSIVNRIHPSTASTVVTPAAVLPGLAQVITAVSAQQNSNLIPKVLIPVNSIPTYNAALDNNPLLLNTYNKFPYPTMSEITVLSAQAKYTEEQIKIWFSAQRLKHGVSWTPEEVEEARRKQFNGTVHTVPQTITVIPTHISTGSNGLPSILQTCQIVGQPGLVLTQVAGTNTLPVTAPIALTVAGVPSQNNIQKSQVPAAQPTAETKPATAAVPTSQSVKHETALVNPDSFGIRAKKTKEQLAELKVSYLKNQFPHDSEIIRLMKITGLTKGEIKKWFSDTRYNQRNSKSNQCLHLNNDSSTTIIIDSSDETTESPTVGTAQPKQSWNPFPDFTPQKFKEKTAEQLRVLQASFLNSSVLTDEELNRLRAQTKLTRREIDAWFTEKKKSKALKEEKMEIDESNAGSSKEEAGETSPADESGAPKSGSTGKICKKTPEQLHMLKSAFVRTQWPSPEEYDKLAKESGLARTDIVSWFGDTRYAWKNGNLKWYYYYQSANSSSMNGLSSLRKRGRGRPKGRGRGRPRGRPRGSKRINNWDRGPSLIKFKTGTAILKDYYLKHKFLNEQDLDELVNKSHMGYEQVREWFAERQRRSELGIELFEENEEEDEVIDDQEEDEEETDDSDTWEPPRHVKRKLSKSDD",binds,–,–
"in vitro-translated, 35S-labelled full-length human ZHX3 (protein, 35S-labelled) MASKRKSTTPCMIPVKTVVLQDASMEAQPAETLPEGPQQDLPPEASAASSEAAQNPSSTDGSTLANGHRSTLDGYLYSCKYCDFRSHDMTQFVGHMNSEHTDFNKDPTFVCSGCSFLAKTPEGLSLHNATCHSGEASFVWNVAKPDNHVVVEQSIPESTSTPDLAGEPSAEGADGQAEIIITKTPIMKIMKGKAEAKKIHTLKENVPSQPVGEALPKLSTGEMEVREGDHSFINGAVPVSQASASSAKNPHAANGPLIGTVPVLPAGIAQFLSLQQQPPVHAQHHVHQPLPTAKALPKVMIPLSSIPTYNAAMDSNSFLKNSFHKFPYPTKAELCYLTVVTKYPEEQLKIWFTAQRLKQGISWSPEEIEDARKKMFNTVIQSVPQPTITVLNTPLVASAGNVQHLIQAALPGHVVGQPEGTGGGLLVTQPLMANGLQATSSPLPLTVTSVPKQPGVAPINTVCSNTTSAVKVVNAAQSLLTACPSITSQAFLDASIYKNKKSHEQLSALKGSFCRNQFPGQSEVEHLTKVTGLSTREVRKWFSDRRYHCRNLKGSRAMIPGDHSSIIIDSVPEVSFSPSSKVPEVTCIPTTATLATHPSAKRQSWHQTPDFTPTKYKERAPEQLRALESSFAQNPLPLDEELDRLRSETKMTRREIDSWFSERRKKVNAEETKKAEENASQEEEEAAEDEGGEEDLASELRVSGENGSLEMPSSHILAERKVSPIKINLKNLRVTEANGRNEIPGLGACDPEDDESNKLAEQLPGKVSCKKTAQQRHLLRQLFVQTQWPSNQDYDSIMAQTGLPRPEVVRWFGDSRYALKNGQLKWYEDYKRGNFPPGLLVIAPGNRELLQDYYMTHKMLYEEDLQNLCDKTQMSSQQVKQWFAEKMGEETRAVADTGSEDQGPGTGELTAVHKGMGDTYSEVSENSESWEPRVPEASSEPFDTSSPQAGRQLETD",binds,binds,–
"ZHX1 (clones from the rat cDNA libraries) (protein, UniProt Q8R515 1-873, looked up, not shown: large carriers) MASRRKSTTPCMVLASEQDPDLELISDLEEGPPVLTPVENARAESVSSDEEVHESVDSDNQQNKKVEGGYECKYCTFQTPDLNMFTFHVDSEHPNVVLNSSYVCVECNFLTKRYDALSEHNLKYHPGEENFKLTMVKRNNQTIFEQTINDLTFDGSFVKEENTEQGESIDVSSSGISISKTPIMKMMKNKVENKRITVHHNSAEGTSEEKENGVKASREENAENTSSSASESNTSTSTVNQVHPSPAGTVVTPTAVLPGLAQVITAVSAQQNSNLVPKVLIPVNSIPTYNAALDNNPLLLNTYNKFPYPTMSEITVLSAQAKYTEEQIKIWFSAQRLKHGVSWTPEEVEEARRKQFNGTVHTVPQTITVIPTHISTGSNGLPSILQTCQIVGQPGLVLTQVAGANTLPVTAPIALTVAGVPNQTNVQKSQVPAAQPAAETKPATAAVPSSPSVRPEAALVNPDSFGIRAKKTKEQLAELKVSYLKNQFPHDSEIIRLMKITGLTKGEIKKWFSDTRYNQRNSKSNQCLHLNNDSSATIIIDSSDETPEPPAAAASQPKQSWNPFPDFAPQKFKEKTAEQLRVLQASFLNSSVLTDEELNRLRAQTKLTRREIDAWFTEKNKTKALKDEKVEVDESNVGSSKEEPGENSPGDEAVAPKSAGTGKICKKTPEQLHMLKSAFVRTQWPSPEEYDKLAEESGLARTDIVSWFGDTRYAWKNGNLKWYYYYQSSNSSSLNGLSSLRKRGRGRPKGRGRGRPRGRPRGGKRMNTWDRVPSLIKFKTGTAILKDYYLKHKFLNEQDLDELVNRSHMGYEQVREWFAERQRRSELGIELFEENEEEDEVIDDQEEDEEETDDSDTWEPPRHVKRKLSKSDD",–,–,binds

# Reference: patent publication US20070014790A1
